Reference: PubChem BioAssay AID602346 (Broad Institute, 2012)
Hit rate of the full screen: of about 340,000 compounds, about 1,200 (0.35%) were called active. This list was built around the results that the source calls inconclusive (neither active nor inactive); the mix of calls is not that of the screen. Cut-off read from the data, not from the text of the source: active = inhibition above about 50% (passing the limit was not always enough); inconclusive = no clear call, values can overlap the other calls; inactive = below about 31%.

Assay: blockers of Vif multimerization in cells – imaging, HEK293T, single point, primary screen (AID 602346)
Settings: Vif self-association by quenched fluorescence, 24 h, at 7.49 µM, stronger effect = higher value

SMILES | inhibition
Cc1cc(C)c(S(=O)(=O)Nc2ccc3c4c(cccc24)CC3)c(C)c1 | active: 56.8%
Cc1ccc(N(C(=O)C2CCC(=O)N2)C2(C(=O)NC3CCCCC3)CCCCC2)cc1 (stereo unspecified) | inconclusive: 39%
COc1ccc(-n2nc(C(=O)NCC(=O)NCCN(C)C)c3ccccc3c2=O)c(OC)c1 | inactive: 0.123%
NS(=O)(=O)c1cccc(NC(=O)CSc2n[nH]c(-c3cccs3)n2)c1 | inconclusive: 26.4%
CCN(CC)CCCCNc1ncc2cc(-c3cc(OC)cc(OC)c3)c(NC(=O)NC(C)(C)C)nc2n1 | inconclusive: 35%
CC(C)(C)c1ccc(S(=O)(=O)N2CCN(Cc3cc4c(cc3O)OCO4)CC2)cc1 | inactive: 10.5%
O=C1CC(C(=O)Nc2ccccc2)S/C(=N\NC(=O)c2ccccc2Cl)N1 (stereo unspecified) | inconclusive: 32.9%
O=C1CSC(c2ccccn2)N1c1ccccc1 (stereo unspecified) | inactive: -1.75%
Cc1ccccc1NS(=O)(=O)c1cc(C(=O)N2CCCC2)ccc1C | inconclusive: 44.6%
Cc1ccc(S(=O)(=O)CC(=O)Nc2nnc(C(C)C)s2)cc1 | active: 58.4%
Cn1cc(S(=O)(=O)N2CCCC2)cc1C(=O)NCc1ccc(Cl)cc1 | inconclusive: 30.7%
Cc1nc2ccc(S(=O)(=O)N3CCCCC3)cc2s1 | inconclusive: 29.8%
O=C(CN1c2ccccc2Sc2ccccc21)NNC(=S)Nc1ccc(Cl)cc1Cl | inactive: -16.9%
Cc1cc(C)n(-c2nc(SCC(=O)O)c3c4c(sc3n2)COC(C)(C)C4)n1 | inactive: 2.48%
Cn1cc(/C=N/n2cnc3scc(-c4ccc(Cl)cc4)c3c2=O)c2ccccc21 | active: 54.1%
Cc1nnc(N2CCC(C(=O)N3CCCCC3)CC2)c2nn(-c3ccc(Cl)cc3)c(C)c12 | inactive: -2.37%
Cn1c(NCCCN2CCOCC2)nc2c1c(=O)n(Cc1ccc(Cl)c(Cl)c1)c(=O)n2C | inconclusive: 22.7%
CC(=O)c1sc(NC(=O)COc2ccc([N+](=O)[O-])cc2)nc1C | active: 98.4%
O=c1[nH]c(C2CCN(S(=O)(=O)c3ccc(C(F)(F)F)cc3)CC2)nc2c1nnn2Cc1ccccc1 | inactive: 14%
O=C(COC(=O)c1ccc(S(=O)(=O)N2CCOCC2)cc1)Nc1ccccc1F | inconclusive: 32%
CN1CCN(c2cc(-c3cc(O)c4ncccc4c3)ccn2)CC1 | inactive: -7.3%
CC(C)=CCc1ccc(O)c(=O)cc1C(C)C | active: 114%

SMILES | inhibition
Cc1cc(C(=O)NCc2ccccc2Br)no1 | inconclusive: 41.3%
Cc1nn(-c2ccccc2)c(C)c1C(=O)OCC(=O)Nc1cccc(S(N)(=O)=O)c1 | inconclusive: 30.7%
CCn1nc(C)cc1C(=O)Sc1ccc(C)cc1 | inconclusive: 27.5%
Cc1cccc(N2C(=O)c3cccc4c(N5CCCCC5)c([N+](=O)[O-])cc(c34)C2=O)c1C | inactive: -1.77%
CCn1c(SC(C)C(=O)NC2CCCC2)nc2cc(S(N)(=O)=O)ccc21 (stereo unspecified) | inconclusive: 33.8%
Nc1nnc(CC(=O)N/N=C/c2ccc(-c3ccc(F)cc3)o2)s1 | inactive: -3.1%
CC(=O)NC1(C2CCCCC2=O)CCCCC1 (stereo unspecified) | inactive: 1.38%
Cc1ccc(NC(=O)c2c(F)cccc2Cl)cc1NS(C)(=O)=O | inconclusive: 47%
CCN(CC)C(=O)c1sc2nc(-c3ccc(OC)cc3)cn2c1C | inconclusive: 22.1%
CC(=O)Nc1ccc(NC(=O)c2ccc(-n3c(C)ccc3C)cc2)cc1 | inconclusive: 31.8%
COc1ccc2[nH]c(=O)c(CNC3CCCCC3)cc2c1 | inconclusive: 48.3%
Cc1c(NC(=O)COC(=O)c2ccccc2Cl)c(=O)n(-c2ccccc2)n1C | inactive: -8.53%
O=C(NCCCN1CCOCC1)C(=O)N/N=C/c1c2ccccc2cc2ccccc12 | inconclusive: 38%
Cc1ccc(C)c(OCC(=O)NCC2COc3ccccc3O2)c1 (stereo unspecified) | inconclusive: 31.6%
CC1CCN(CCCOc2ccc(OCc3ccccc3)cc2)CC1 | inconclusive: 41.3%
COc1ccc(CNC(=O)CN(C(=O)c2csnn2)c2ccc(C(C)=O)cc2)cc1 | inconclusive: 29.1%
COc1cccc(C(=O)NCC(=O)N/N=C/c2cccc(OC(=O)c3ccc([N+](=O)[O-])cc3)c2)c1 | inactive: -0.733%
Nc1ccc2nc(-c3ccccc3)cnc2c1 | inconclusive: 40.3%
Cc1cc2c(cc1S(=O)(=O)N1CCN(c3ccccc3)CC1)OCC(=O)N2 | inconclusive: 23.2%
Cc1ccc(Cn2c(=N)c(S(=O)(=O)c3ccc(C)cc3)cc3c(=O)n4ccccc4nc32)cc1 | inconclusive: 27.3%
Oc1ccc(Br)cc1/C=N/n1c(-c2ccccc2)n[nH]c1=S | inconclusive: 29.8%
c1ccc(Oc2cccc(CN3CCCCC3)c2)cc1 | inconclusive: 25.4%

Shown tab-delimited: two of the compounds above
SMILES	inhibition
CCn1c(SC(C)C(=O)NC2CCCC2)nc2cc(S(N)(=O)=O)ccc21 (stereo unspecified)	inconclusive: 33.8%
Nc1nnc(CC(=O)N/N=C/c2ccc(-c3ccc(F)cc3)o2)s1	inactive: -3.1%

Remaining list, next part.

SMILES | inhibition
CN(C/C=C/c1ccccc1[N+](=O)[O-])Cc1ccccc1 | inconclusive: 30.4%
Cc1ccc(CNc2ccc3c(c2)OCO3)cc1 | active: 62.5%
CCN(c1ccccc1)S(=O)(=O)c1ccc(C(=O)N2CCN(c3ccccc3F)CC2)cc1 | inconclusive: 49.9%
COc1ccc2nc3cc([N+](=O)[O-])ccc3c(NNc3ccc([N+](=O)[O-])cc3)c2c1 | active: 66.7%
CSCCNC(=O)c1ccc(OC2CCN(CCc3ccccc3)CC2)cc1 | inactive: -0.022%
CC(=O)Nc1ccc(-c2ccnc3c2CC(C(=O)NCc2ccccc2)O3)cc1 (stereo unspecified) | active: 66%
CC(NC(=O)Cn1ccsc1=N)C12CC3CC(CC(C3)C1)C2 (stereo unspecified) | inconclusive: 38.9%
Cc1[nH][nH]c(=O)c1C(c1ccc(-c2ccc(C(=O)O)cc2)o1)c1c(C)[nH][nH]c1=O | inconclusive: 40.4%
Cc1ccc(-c2cc(C(=O)Nc3cccnc3)c3ccccc3n2)s1 | inconclusive: 38.4%
O=C(NC1CCCCC1)C(c1ccncc1)N(Cc1ccc2c(c1)OCO2)C(=O)c1cnsn1 (stereo unspecified) | inconclusive: 46.7%
Cc1ccc(-n2nnnc2SCC(=O)Nc2sc(C)c(C)c2C#N)cc1C | inactive: 19.9%
O=S(=O)(O)c1cc2onnc2c2ccccc12 | inconclusive: 32.4%
Cc1cc(NC(=O)c2cc(C(C)C)on2)no1 | inconclusive: 32.3%
Cc1cc(C)cc(Nc2nc3ccc(C)cc3n3cnnc23)c1 | inconclusive: 25.3%
C[C@H](NC(=O)Cn1cncn1)c1ccccc1 | inconclusive: 28.9%
CCOc1ccc(NC(=S)NC(=O)/C=C/c2ccc(OC)c(OC)c2)c([N+](=O)[O-])c1 | inconclusive: 38.9%
O=C1c2cccc3c([N+](=O)[O-])ccc(c23)C(=O)N1c1nccs1 | active: 67%
C=C(C)C(=O)O[C@H]1C/C(C)=C\C(=O)/C=C(\C)[C@H](O)[C@@H]2OC(=O)C(=C)[C@@H]21 | active: 136%
Cc1ccccc1C(=O)Nc1ccc(Cl)cn1 | inactive: 6.48%
CCOC(=O)Nc1sc(NS(=O)(=O)c2ccc(C)cc2)nc1C | inconclusive: 30.3%
CC(C)C[C@H]1CN([C@@H](Cc2ccccc2)CN2CCC[C@@H]2CN2C(=O)C(=O)NC[C@@H]2Cc2ccccc2)C(=O)C(=O)N1CC1CCCCC1 | inconclusive: 24.9%
COc1ccc(NC(=O)CSc2ccc(NC(C)=O)cc2)cc1S(=O)(=O)N1CCOCC1 | inconclusive: 43.9%

SMILES | inhibition
Cc1cc2oc3ccc(NCCCn4ccnc4)cc3c(=O)c2cc1C | active: 154%
COc1ccc(-n2nc(C(=O)NCC(=O)NCC3COc4ccccc4O3)c3ccccc3c2=O)c(OC)c1 (stereo unspecified) | inactive: -4.16%
COc1ccc(OC)c(-c2cc(C(=O)Nc3cc(C)on3)no2)c1 | active: 62.7%
Cc1ccc(-n2c(Cc3cccs3)nnc2SCC(=O)Nc2ccc(F)c(F)c2)cc1 | inconclusive: 36.2%
Cc1nn(Cc2ccccc2Cl)c2sc(C(=O)Nc3nccs3)cc12 | inactive: 3.17%
COc1ccc(S(=O)(=O)N2CCOCC2)cc1NC(=O)COC(=O)c1ccc([N+](=O)[O-])s1 | inconclusive: 49.8%
NS(=O)(=O)c1cccc(NC(=O)COC(=O)Cc2n[nH]c(=O)c3ccccc23)c1 | inactive: -1.23%
CC(C)(CO)NS(=O)(=O)c1ccc2c(c1)C(=NO)c1cc(S(=O)(=O)NC(C)(C)CO)ccc1-2 | inactive: 1.28%
O=C(O)c1ccc2c(c1)C(=O)/C(=C\c1ccco1)C2=O | inconclusive: 29.2%
COC(=O)C1(C)NC(c2ccccc2F)C2C(=O)N(c3ccccc3)C(=O)C21 (stereo unspecified) | inconclusive: 30.7%
CCOCCCNC(=O)C(NC(=O)c1ccccn1)c1ccc(C)cc1 (stereo unspecified) | inconclusive: 22.8%
COc1ccc2c(c1)CCc1c-2n[nH]c1C(=O)NCCC(C)C | inactive: -8.97%
CCCCN(C(=O)CCn1c(=O)oc2ccccc21)c1ccccc1 | inactive: -7.43%
CCOC(=O)c1cc(-c2ccc(F)cc2)nc2c1c(=O)[nH]c(=O)n2Cc1ccccc1 | inactive: -9.06%
C=CCN(C(=O)c1csnn1)C(C(=O)NCc1ccccc1)c1ccccc1F (stereo unspecified) | inactive: -2.12%
Cc1ccc(NC(=O)c2cc(NC(=O)c3ccco3)ccc2N2CCOCC2)cc1 | inconclusive: 28.5%
O=C(Nc1ccc2nc(-c3cccnc3)[nH]c2c1)C12CC3CC(CC(C3)C1)C2 | inactive: -7.21%
COP(=O)(OC)C(Nc1ccc(Cl)cc1)c1ccccc1 (stereo unspecified) | inconclusive: 39%
NC(=O)C1CCN(C(=O)c2ccco2)CC1 | inactive: -1.69%
CC(=O)C[C@H](O)CC(=O)[C@H]1OC(=O)CCCCCCc2ccccc21 | inconclusive: 43.2%

Exported tab-delimited: entries from further up.
SMILES	inhibition
Cc1ccc(-n2c(Cc3cccs3)nnc2SCC(=O)Nc2ccc(F)c(F)c2)cc1	inconclusive: 36.2%
Cc1nn(Cc2ccccc2Cl)c2sc(C(=O)Nc3nccs3)cc12	inactive: 3.17%
